Experimental findings from article PMC9860496 are described below.

Amino acid sequences for entries named in this document (tags omitted).
UniProt O00762: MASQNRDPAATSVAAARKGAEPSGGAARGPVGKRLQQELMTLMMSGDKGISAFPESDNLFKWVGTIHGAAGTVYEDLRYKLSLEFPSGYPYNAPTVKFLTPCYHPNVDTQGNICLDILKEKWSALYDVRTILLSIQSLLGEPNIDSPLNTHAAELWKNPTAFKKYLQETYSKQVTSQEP
UniProt Q712K3: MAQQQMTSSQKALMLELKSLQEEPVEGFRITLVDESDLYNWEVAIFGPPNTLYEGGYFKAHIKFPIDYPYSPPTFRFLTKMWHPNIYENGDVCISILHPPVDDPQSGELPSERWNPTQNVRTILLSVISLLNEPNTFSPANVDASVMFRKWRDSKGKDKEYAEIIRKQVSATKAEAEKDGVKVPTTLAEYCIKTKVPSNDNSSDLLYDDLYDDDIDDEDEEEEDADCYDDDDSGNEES

Assay [1] has as its target HA-Ash-Parkin (C431A) (UniProt O60260). The assay can be described thus: condition: only basal conditions (DMSO, without valinomycin); Fluoppi (fluorescent foci of hAG-tagged and Ash-tagged partners in cells); HeLa cells coexpressing hAG-E2 and HA-Ash-Parkin (C431A), basal conditions (DMSO for 3 h, no valinomycin), fixed and immunostained.
Assay [2] has the same target. The assay can be described thus: Fluoppi (fluorescent foci of hAG-tagged and Ash-tagged partners in cells); HeLa cells (no endogenous Parkin) coexpressing hAG-E2 and HA-Ash-Parkin (C431A), 10 μM valinomycin for 3 h, fixed and immunostained; foci on damaged mitochondria, colocalization of hAG with TOMM20 quantified.

Results are given in words; binding and its absence hold for the method and conditions named. Some entries that bind do so weakly or less than the wild type.

For the substance “hAG-UBE2C (from UniProt O00762 1-179) (enzyme)”, the values for the binding result in assay [1] and in assay [2] were “no binding” and “binds”, respectively.
The matching figures for “hAG-UBE2R2 (from UniProt Q712K3 1-238) (enzyme)”: “no binding” and “binds”.
